Patent US20080146606A1, “NOVEL COMPOUNDS” (priority 2006, published 2008)
Some of these results come from one statement about several compounds together.

Target: T1, Recombinant human IKKβ (residues 5-756) (Homo sapiens, UniProt O14920)
T1 construct: Recombinant human IKKβ (residues 5-756); GST (C); made in house
T1 sequence (O14920 5-756): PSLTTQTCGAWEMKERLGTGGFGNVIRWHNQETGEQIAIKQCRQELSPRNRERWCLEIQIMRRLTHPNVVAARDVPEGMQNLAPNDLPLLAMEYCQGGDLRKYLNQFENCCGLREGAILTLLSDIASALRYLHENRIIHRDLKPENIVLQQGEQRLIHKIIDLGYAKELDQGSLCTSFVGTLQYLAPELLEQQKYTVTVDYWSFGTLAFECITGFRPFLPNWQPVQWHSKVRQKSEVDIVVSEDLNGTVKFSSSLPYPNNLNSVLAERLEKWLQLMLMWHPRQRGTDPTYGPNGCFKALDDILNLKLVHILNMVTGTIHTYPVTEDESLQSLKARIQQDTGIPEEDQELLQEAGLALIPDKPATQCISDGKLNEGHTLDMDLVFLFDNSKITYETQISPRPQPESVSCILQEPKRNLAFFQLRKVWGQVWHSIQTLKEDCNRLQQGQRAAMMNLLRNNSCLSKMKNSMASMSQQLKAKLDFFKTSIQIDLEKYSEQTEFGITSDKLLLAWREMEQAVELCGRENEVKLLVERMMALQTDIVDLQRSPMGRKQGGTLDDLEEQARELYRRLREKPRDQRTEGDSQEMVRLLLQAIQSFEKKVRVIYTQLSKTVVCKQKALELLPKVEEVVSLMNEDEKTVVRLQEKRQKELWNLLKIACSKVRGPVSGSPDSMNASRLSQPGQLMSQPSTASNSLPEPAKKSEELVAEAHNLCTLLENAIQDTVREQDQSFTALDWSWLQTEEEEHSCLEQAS
Assay: IKK2 assay (TR-FRET)
Type: biochemical

Row | Structure (SMILES) | pIC50 potency against IKK2
1 | CC(C)NS(=O)(=O)c1ccc(-c2ccnc3[nH]c(C(F)F)cc23)cc1.O=C(O)C(F)(F)F [Example 165, 4-[2-(difluoromethyl)-1H-pyrrolo[2,3-b]pyridin-4-yl]-N-(1-methylethyl)benzenesulfona-mide trifluoroacetate] | ≥ 5.0
2 | CC(C)C(CO)NS(=O)(=O)c1ccc(-c2ccnc3[nH]c(C4CC4)cc23)cc1 (stereo in doubt) [Example 211, 4-(2-cyclopropyl-1H-pyrrolo[2,3-b]pyridin-4-yl)-N-[(1S)-1-(hydroxymethyl)-2-methylpropyl]benzenesulfonamide] | ≥ 5.0
3 | Cc1cc2c(-c3ccc(S(=O)(=O)NC(C)(C)C)cc3)ccnc2[nH]1.O=C(O)C(F)(F)F [Example 161, N-(1,1-dimethylethyl)-4-(2-methyl-1H-pyrrolo[2,3-b]pyridin-4-yl)benzenesulfonamidetrifluoroacetate] | ≥ 5.0
4 | CC(C)C[C@H](CO)NS(=O)(=O)c1ccc(-c2ccnc3[nH]c(C(F)(F)F)cc23)cc1 [Example 225, N-[(1R)-1-(hydroxymethyl)-3-methylbutyl]-4-[2-(trifluoromethyl)-1H-pyrrolo[2,3-b]pyridin-4-yl]benzenesulfonamide] | ≥ 5.0
5 | NCCNS(=O)(=O)c1ccc(-c2ccnc3[nH]c(CC(N)=O)cc23)cc1.O=C(O)C(F)(F)F.O=C(O)C(F)(F)F [Example 1, 2-[4-(4-{[(2-Aminoethyl)amino]sulfonyl}phenyl)-1H-pyrrolo[2,3-b]pyridin-2-yl]acetamide bis(trifluoroacetate)] | ≥ 5.0
6 | O=C(O)C(F)(F)F.O=S(=O)(NC1CCC(O)CC1)c1ccc(-c2ccnc3[nH]c(C(F)F)cc23)cc1 (centres unmarked) [Example 175, 4-[2-(difluoromethyl)-1H-pyrrolo[2,3-b]pyridin-4-yl]-N-(4-hydroxycyclohexyl)benzene-sulfonamide trifluoroacetate] | ≥ 5.0
7 | Cc1cc2c(-c3ccc(S(=O)(=O)N[C@@H]4CCCC[C@H]4N)cc3)ccnc2[nH]1 (relative stereo) [Example 246, rel-N-[(1R,2R)-2-aminocyclohexyl]-4-(2-methyl-1H-pyrrolo[2,3-b]pyridin-4-yl)benzenesulfonamide] | ≥ 5.0
8 | Cc1cc2c(-c3ccc(S(=O)(=O)N[C@@H](C)CO)cc3)ccnc2[nH]1 [Example 205, N-[(1S)-2-hydroxy-1-methylethyl]-4-(2-methyl-1H-pyrrolo[2,3-b]pyridin-4-yl)benzenesulfonamide] | ≥ 5.0
9 | Cc1cc2c(-c3ccc(S(=O)(=O)NC4CCCC4)cc3)ccnc2[nH]1.O=C(O)C(F)(F)F [Example 157, N-cyclopentyl-4-(2-methyl-1H-pyrrolo[2,3-b]pyridin-4-yl)benzenesulfonamidetrifluoroacetate] | ≥ 5.0
10 | CC(C)NS(=O)(=O)c1ccc(-c2ccnc3[nH]c(Cn4ccnn4)cc23)cc1 [Example 132, N-(1-methylethyl)-4-[2-(1H-1,2,3-triazol-1-ylmethyl)-1H-pyrrolo[2,3-b]pyridin-4-yl]benzenesulfonamide] | ≥ 5.0
11 | Cc1ncccc1OCc1cc2c(-c3ccc(S(=O)(=O)N4CCCC4)cc3)ccnc2[nH]1.O=C(O)C(F)(F)F [Example 59, 2-{[(2-methyl-3-pyridinyl)oxy]methyl}-4-[4-(1-pyrrolidinylsulfonyl)phenyl]-1H-pyrrolo[2,3-b]pyridine trifluoroacetate] | ≥ 5.0
12 | CN1CCC(NS(=O)(=O)c2ccc(-c3ccnc4[nH]c(Cn5ccnn5)cc34)cc2)CC1 [Example 130, N-(1-methyl-4-piperidinyl)-4-[2-(1H-1,2,3-triazol-1-ylmethyl)-1H-pyrrolo[2,3-b]pyridin-4-yl]benzenesulfonamide] | ≥ 5.0
13 | CC(C)[C@@H](CO)NS(=O)(=O)c1ccc(-c2ccnc3[nH]c(C(F)(F)F)cc23)cc1 [Example 223, N-[(1S)-1-(hydroxymethyl)-2-methylpropyl]-4-[2-(trifluoromethyl)-1H-pyrrolo[2,3-b]pyridin-4-yl]benzenesulfonamide] | ≥ 5.0
14 | CC(C)c1cc2c(-c3ccc(S(=O)(=O)NC4CCS(=O)(=O)C4)cc3)ccnc2[nH]1.O=C(O)C(F)(F)F (centres unmarked) [Example 115, N-(1,1-dioxidotetrahydro-3-thienyl)-4-[2-(1-methylethyl)-1H-pyrrolo[2,3-b]pyridin-4-yl]benzenesulfonamidetrifluoroacetate] | ≥ 5.0
15 | O=S(=O)(NC1CCCC1)c1ccc(-c2ccnc3[nH]c(Cn4ccnn4)cc23)cc1 [Example 129, N-cyclopentyl-4-[2-(1H-1,2,3-triazol-1-ylmethyl)-1H-pyrrolo[2,3-b]pyridin-4-yl]benzenesulfonamide] | ≥ 5.0
16 | O=S1(=O)CCC(NS(=O)(=O)c2ccc(-c3ccnc4[nH]c(C(F)(F)F)cc34)cc2)C1 (centres unmarked) [Example 71, N-(1,1-Dioxidotetrahydro-3-thienyl)-4-[2-(trifluoromethyl)-1H-pyrrolo[2,3-b]pyridin-4-yl]benzenesulfonamide] | ≥ 5.0
17 | CC(C)C(C)NS(=O)(=O)c1ccc(-c2ccnc3[nH]c(C(F)(F)F)cc23)cc1 (centres unmarked) [Example 234, N-(1,2-dimethylpropyl)-4-[2-(trifluoromethyl)-1H-pyrrolo[2,3-b]pyridin-4-yl]benzenesulfonamide] | ≥ 5.0
18 | O=C(O)C(F)(F)F.O=S(=O)(c1ccc(-c2ccnc3[nH]c(COc4cccnc4)cc23)cc1)N1CCCC1 [Example 40, 2-[(3-pyridinyloxy)methyl]-4-[4-(1-pyrrolidinylsulfonyl)phenyl]-1H-pyrrolo[2,3-b]pyridine trifluoroacetate] | ≥ 5.0
19 | CC(C)C[C@@H](CO)NS(=O)(=O)c1ccc(-c2ccnc3[nH]c(C4CC4)cc23)cc1 [Example 214, 4-(2-cyclopropyl-1H-pyrrolo[2,3-b]pyridin-4-yl)-N-[(1S)-1-(hydroxymethyl)-3-methylbutyl]benzene-sulfonamide] | ≥ 5.0
20 | O=C(O)C(F)(F)F.O=S(=O)(NC1CCCC1)c1ccc(-c2ccnc3[nH]c(C(F)F)cc23)cc1 [Example 174, N-cyclopentyl-4-[2-(difluoromethyl)-1H-pyrrolo[2,3-b]pyridin-4-yl]benzenesulfonamidetrifluoroacetate] | ≥ 5.0
21 | NCCNS(=O)(=O)c1ccc(-c2ccnc3[nH]c(CC(=O)N4CCCC4)cc23)cc1.O=C(O)C(F)(F)F [Example 98, N-(2-aminoethyl)-4-{2-[2-oxo-2-(1-pyrrolidinyl)ethyl]-1H-pyrrolo[2,3-b]pyridin-4-yl}benzenesulfonamide trifluoroacetate] | ≥ 5.0
22 | O=C(O)C(F)(F)F.O=C(O)c1ccc(OCCCc2cc3c(-c4ccc(S(=O)(=O)N5CCCC5)cc4)ccnc3[nH]2)cc1 [Example 80, 4-[(3-{4-[4-(1-pyrrolidinylsulfonyl)phenyl]-1H-pyrrolo[2,3-b]pyridin-2-yl}-2-propyn-1-yl)oxy]benzoic acid] | ≥ 5.0
23 | CC(O)C(C)(C)NS(=O)(=O)c1ccc(-c2ccnc3[nH]c(C4CC4)cc23)cc1 (centres unmarked) [Example 190, 4-(2-Cyclopropyl-1H-pyrrolo[2,3-b]pyridin-4-yl)-N-(2-hydroxy-1,1-dimethylpropyl)benzenesulfonamide] | ≥ 5.0
24 | NCCNS(=O)(=O)c1ccc(-c2ccnc3[nH]c(C4CC4)cc23)cc1.O=C(O)C(F)(F)F [Example 150, N-(2-aminoethyl)-4-(2-cyclopropyl-1H-pyrrolo[2,3-b]pyridin-4-yl)benzenesulfonamidetrifluoroacetate] | ≥ 5.0
25 | CC(NS(=O)(=O)c1ccc(-c2ccnc3[nH]c(C(F)(F)F)cc23)cc1)C(C)(C)O (centres unmarked) [Example 232, N-(2-hydroxy-1,2-dimethylpropyl)-4-[2-(trifluoromethyl)-1H-pyrrolo[2,3-b]pyridin-4-yl]benzenesulfonamide] | ≥ 5.0
26 | COc1cccc(NC(=O)Cc2cc3c(-c4ccc(S(=O)(=O)NC5CCS(=O)(=O)CC5)cc4)ccnc3[nH]2)c1 [Example 72, 2-[4-(4-{[(1,1-Dioxidotetrahydro-2H-thiopyran-4-yl)amino]sulfonyl}phenyl)-1H-pyrrolo[2,3-b]pyridin-2-yl]-N-[3-(methyloxy)phenyl]acetamide] | ≥ 5.0
27 | Cc1cc2c(-c3ccc(S(=O)(=O)NCC(C)(C)O)cc3)ccnc2[nH]1.O=C(O)C(F)(F)F [Example 85, N-(2-hydroxy-2-methylpropyl)-4-(2-methyl-1H-pyrrolo[2,3-b]pyridin-4-yl)benzenesulfonamide trifluoroacetate] | ≥ 5.0
28 | NCCNS(=O)(=O)c1ccc(-c2ccnc3[nH]c(CCCO)cc23)cc1 [Example 6, N-(2-Aminoethyl)-4-[2-(3-hydroxypropyl)-1H-pyrrolo[2,3-b]pyridin-4-yl]benzenesulfonamide] | ≥ 5.0
29 | O=S(=O)(c1ccc(-c2ccnc3[nH]c(CO)cc23)cc1)N1CCCC1 [Example 11, {4-[4-(1-Pyrrolidinylsulfonyl)phenyl]-1H-pyrrolo[2,3-b]pyridin-2-yl}methanol] | ≥ 5.0
